# This is one part of the list. Further columns of the screen follow, without active or inactive calls. Most of these compounds were active or inconclusive in the main read-out, so they are no random draw. Potencies come from curve fits of mixed quality, noted in brackets.
# Assay: qHTS Assay to Find Inhibitors of Chronic Active B-Cell Receptor Signaling
# Conditions: ABC-DLBCL IkBa-CBG/CBR reporter, luminescence ratio (green luciferase fused to IkBa over red control in TMD8 lymphoma cells), 4 h
# How it was run: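 TMD8 ABC-DLBCL cells carrying doxycycline-inducible green luciferase fused to IkappaBalpha plus unfused red luciferase were exposed to compounds (up to 46 uM) for 4 hrs at 37C. Activity came from the overlap-corrected green/red luminescence ratio.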
# [1] = measured here: CBR red luminescence, cell number
# [2] = measured here: IkBa-CBG green luminescence
compound,measurement,setting,value
O=C1Nc2ccc(NS(=O)(=O)c3cccs3)c3cccc1c23,AC50,[1],"11.2 µM [rising, partial curve]"
same,AC50,[2],"8.91 µM [falling, partial curve, poor fit]"
CC(C)Cc1nnc(NC(=O)CSc2ccccn2)s1,AC50,[1],"0.366 µM [rising, partial curve, poor fit]"
CN1C(=O)/C(=C/c2cccc(Cl)c2)Sc2ccc(C(=O)N3CCOCC3)cc21,AC50,[1],"22.4 µM [falling, partial curve, poor fit]"
CC(=Nc1ccc(Br)cc1)c1sc2ccccc2c1O,AC50,[1],"10 µM [rising, partial curve, poor fit]"
C/C(Cc1ccccc1)=N\NC(=O)c1ccccn1,AC50,[1],"12.6 µM [falling, partial curve, poor fit]"
COc1ccc(CN(C(=O)CN2C(=O)C(C)Oc3ccccc32)C2CCCC2)c(OC)c1 (stereo unspecified),AC50,[1],"29.1 µM [falling, single point]"
O=C(CN1CCOCC1)Nc1nc2cc([N+](=O)[O-])ccc2s1,AC50,[1],"29.1 µM [falling, single point]"
O=C(CN1C(=O)CSC1=O)c1ccccc1,AC50,[1],"0.146 µM [falling, full curve, poor fit]"
CCN1CCN(C(=O)CCCCCn2c(=O)[nH]c3cc(C(=O)OC)ccc3c2=O)CC1,AC50,[1],"8.2 µM [falling, partial curve]"
same,AC50,[2],"9.2 µM [rising, partial curve, poor fit]"
CC(NC(=O)COC(=O)C12CC3CC(CC(Br)(C3)C1)C2)c1ccccc1 (stereo unspecified),AC50,[1],"23.1 µM [rising, partial curve, poor fit]"
COc1ccc(CCn2c(N3CCN(Cc4ccccc4)CC3)nc3c2c(=O)[nH]c(=O)n3C)cc1,AC50,[1],"20 µM [rising, partial curve, poor fit]"
C/C(=N\NC(=O)c1ccn(C)n1)c1cccc(NC(=O)c2ccncc2)c1,AC50,[1],"29.1 µM [falling, single point]"
Cc1ccc(-c2nc(NC(=O)c3nn(C)cc3[N+](=O)[O-])sc2C)cc1C,AC50,[1],"3.26 µM [falling, full curve]"
Cc1ccccc1/C=C1\SC(=S)N(/N=C/c2cc([N+](=O)[O-])ccc2O)C1=O,AC50,[1],"10 µM [falling, single point]"
Cn1cc([N+](=O)[O-])c(C(=O)N(Cc2ccccc2)Cc2ccccc2)n1,AC50,[1],"6.51 µM [rising, partial curve, poor fit]"
NS(=O)(=O)c1cccc(NC(=O)CCCC2CCCCC2)c1,AC50,[1],"0.708 µM [falling, full curve]"
Nc1ccc(-c2cnc(-c3ccc(N)cc3)nc2)cc1,AC50,[1],"12.6 µM [falling, partial curve, poor fit]"
CCCCc1nnc(NC(=O)c2ccccc2OCc2c(C)noc2C)s1,AC50,[1],"14.6 µM [falling, single point]"
O=C(N/N=C/c1ccncc1)c1ccccc1OCc1ccc(Br)cc1,AC50,[1],"9.2 µM [falling, partial curve]"
Cc1cc(Cn2nc(C(=O)NCc3cccc(Br)c3)cc2-c2ccccc2)on1,AC50,[1],"29.1 µM [falling, single point]"
O=c1[nH]c(=S)c2ncn(-c3ccccc3)c2[nH]1,AC50,[1],"25.1 µM [falling, single point]"
CCSc1ncnc2sc3c(c12)CCC3,AC50,[1],"29.1 µM [rising, single point]"
N#Cc1ccsc1NC(=O)CN1CCN(S(=O)(=O)c2ccccc2C(F)(F)F)CC1,AC50,[1],"8.2 µM [rising, partial curve, poor fit]"
CCOC(=O)c1nnn(-c2ccc([N+](=O)[O-])cc2[N+](=O)[O-])c1C,AC50,[1],"12.6 µM [falling, partial curve, poor fit]"
CC1Cc2ccccc2N1c1ncnc2nc[nH]c12 (stereo unspecified),AC50,[1],"0.259 µM [falling, full curve, poor fit]"
Cc1ccc(-c2csc(NC(=O)c3ccccc3F)c2C(=O)O)cc1,AC50,[1],"11.2 µM [falling, partial curve]"
CCCNC(=O)CSc1nnc(C)s1,AC50,[1],"6.51 µM [rising, single point]"
O=C(O)CNS(=O)(=O)Cc1ccccc1,AC50,[1],"31.6 µM [falling, single point]"
O=C(O)CCN(CCC(=O)O)c1ccccc1,AC50,[1],"23.1 µM [rising, partial curve, poor fit]"
CC(C)N1C(=O)/C(=C\c2nc3ccccc3c(=O)[nH]2)c2ccccc21,AC50,[1],"29.1 µM [falling, single point]"
same,AC50,[2],"25.9 µM [falling, partial curve, poor fit]"
COC(=O)c1sc(NC(=O)c2c(C)noc2C)nc1C,AC50,[1],"35.5 µM [falling, single point]"
Cc1ccc(Nc2c(-c3ccc(N4CCOCC4)cc3)nc3ncccn23)cc1,AC50,[1],"6.51 µM [rising, partial curve]"
same,AC50,[2],"0.461 µM [falling, partial curve, poor fit]"
O=C(CNc1n[nH]c(=O)[nH]c1=O)N/N=C/C1CC=CCC1 (stereo unspecified),AC50,[1],"7.08 µM [rising, partial curve, poor fit]"
Cc1ccc2c(CC(=O)NCc3ccc4c(c3)OCO4)coc2c1,AC50,[1],"7.31 µM [falling, partial curve, poor fit]"
O=C(CSc1ccccn1)Nc1ccc(Cl)cn1,AC50,[1],"14.1 µM [falling, single point]"
O=C(OCc1csc(-c2ccccc2)n1)C1=NN(c2ccccc2)C(=O)CC1,AC50,[1],"6.51 µM [rising, partial curve, poor fit]"
COc1ccc(/C=C/C(=O)O/N=C(\N)c2ccccc2)cc1OC,AC50,[1],"29.1 µM [falling, single point]"
CCN1C(=O)c2cccc3c(S(=O)(=O)Nc4nc(C)cs4)ccc1c23,AC50,[1],"11.2 µM [rising, partial curve]"
same,AC50,[2],"5.62 µM [falling, partial curve]"
CCCCNC(=S)NNC(=O)c1ccc(Br)o1,AC50,[2],"18.4 µM [falling, partial curve, poor fit]"
Cc1nn(CC(=O)O)c(C)c1Cl,AC50,[1],"7.31 µM [rising, partial curve, poor fit]"
CCCn1c(=O)c(C(=O)NNC(=O)c2cccc([N+](=O)[O-])c2)c(O)c2ccccc21,AC50,[1],"10 µM [falling, partial curve, poor fit]"
O=C(C1=C[C@@H](c2coc3ccccc3c2=O)C[C@@H](OCc2ccc(CO)cc2)O1)N1CCN(Cc2ccc3c(c2)OCO3)CC1,AC50,[1],"0.501 µM [rising, partial curve, poor fit]"
Cc1ccc2nc3n(c(=O)c2c1)-c1ccccc1C(=O)NC3Cc1ccc(O)cc1 (stereo unspecified),AC50,[1],"0.103 µM [rising, full curve, poor fit]"
COc1ccc(-c2nn(-c3ccccc3)cc2CO)cc1,AC50,[1],"3.66 µM [rising, partial curve, poor fit]"
CC(=O)Nc1ccc(Sc2ncnc3scc(-c4ccccc4)c23)cc1,AC50,[1],"29.1 µM [falling, single point]"
O=C(O)c1cc(-c2c[nH]c3ccccc23)nc2ccc3ccccc3c12,AC50,[1],"4.47 µM [falling, single point]"
CCCCc1nnc(NC(=O)c2nc3nccc(C)n3n2)s1,AC50,[1],"25.1 µM [falling, single point]"
CCc1cccc(NC(=S)N(CCOC)C2CCN(C(C)=O)CC2)c1,AC50,[1],"22.4 µM [rising, single point]"
C#CCOCCOCCOCCNc1nc(N2CCN(C(=O)CCCCCCCCCCNC(=O)[C@@H](CCSC)n3cc(CCO)nn3)CC2)nc(N2CCN(C(=O)CCCCCCCCCCNC(=O)[C@H]([C@@H](C)CC)n3cc(CCCCCN)nn3)CC2)n1,AC50,[1],"14.6 µM [rising, partial curve]"
Cc1cc(SCC(=O)N2CCCC2=O)nc2c(C)cccc12,AC50,[1],"7.31 µM [rising, partial curve, poor fit]"
O=S(=O)(N1CCOCC1)n1nnc2ccccc21,AC50,[1],"23.1 µM [rising, single point]"
COc1ccc2nc(SCC(=O)Nc3nccs3)[nH]c2c1,AC50,[1],"15.8 µM [falling, partial curve, poor fit]"
CC(=O)c1c(C)[nH]c(C(=O)OCC(=O)NCCC(C)C)c1C,AC50,[1],"22.4 µM [falling, partial curve, poor fit]"
CC(=O)Nc1cccc(C(=O)/C=C/c2ccc(/C=C/C(=O)c3cccc(NC(C)=O)c3)cc2)c1,AC50,[1],"8.2 µM [falling, partial curve]"
same,AC50,[2],"23.1 µM [rising, partial curve, poor fit]"
CCNc1ccc(C(=O)NN=C2CCCC2)cc1[N+](=O)[O-],AC50,[1],"2.82 µM [falling, partial curve, poor fit]"
COc1ccccc1/C=C/C(=O)OCC(=O)NC1CC1,AC50,[1],"29.1 µM [falling, single point]"
CCc1ccc(CN2C(=O)c3ccccc3C2C(=O)NCCc2ccc(OC)c(OC)c2)cc1 (stereo unspecified),AC50,[1],"5.62 µM [rising, partial curve, poor fit]"
CCc1cc(C(=O)N2CCCC(Nc3ccc(F)c(F)c3)C2)n(C)n1 (stereo unspecified),AC50,[1],"6.31 µM [rising, single point]"
COc1cccc(NC(=O)CSc2nc3ccccc3nc2N2CCOCC2)c1,AC50,[1],"14.1 µM [falling, single point]"
O=C(CSc1nc2ccccc2c(=O)n1Cc1ccccc1)Nc1ccc(Br)cc1C(=O)O,AC50,[1],"7.94 µM [falling, partial curve, poor fit]"

# Part of the list above, reformatted:
compound	measurement	setting	value
CC(C)N1C(=O)/C(=C\c2nc3ccccc3c(=O)[nH]2)c2ccccc21	AC50	[2]	25.9 µM [falling, partial curve, poor fit]
COC(=O)c1sc(NC(=O)c2c(C)noc2C)nc1C	AC50	[1]	35.5 µM [falling, single point]
Cc1ccc(Nc2c(-c3ccc(N4CCOCC4)cc3)nc3ncccn23)cc1	AC50	[1]	6.51 µM [rising, partial curve]
